From doi:10.1101/2025.10.17.682828 come the findings set out here.

Chains of the proteins cited; added tags and fusions are not shown. Lines headed by an entry give the natural chain unless they say otherwise; changes in a name come on top. Residues count along the entry.
UniProt P08238, 3-724: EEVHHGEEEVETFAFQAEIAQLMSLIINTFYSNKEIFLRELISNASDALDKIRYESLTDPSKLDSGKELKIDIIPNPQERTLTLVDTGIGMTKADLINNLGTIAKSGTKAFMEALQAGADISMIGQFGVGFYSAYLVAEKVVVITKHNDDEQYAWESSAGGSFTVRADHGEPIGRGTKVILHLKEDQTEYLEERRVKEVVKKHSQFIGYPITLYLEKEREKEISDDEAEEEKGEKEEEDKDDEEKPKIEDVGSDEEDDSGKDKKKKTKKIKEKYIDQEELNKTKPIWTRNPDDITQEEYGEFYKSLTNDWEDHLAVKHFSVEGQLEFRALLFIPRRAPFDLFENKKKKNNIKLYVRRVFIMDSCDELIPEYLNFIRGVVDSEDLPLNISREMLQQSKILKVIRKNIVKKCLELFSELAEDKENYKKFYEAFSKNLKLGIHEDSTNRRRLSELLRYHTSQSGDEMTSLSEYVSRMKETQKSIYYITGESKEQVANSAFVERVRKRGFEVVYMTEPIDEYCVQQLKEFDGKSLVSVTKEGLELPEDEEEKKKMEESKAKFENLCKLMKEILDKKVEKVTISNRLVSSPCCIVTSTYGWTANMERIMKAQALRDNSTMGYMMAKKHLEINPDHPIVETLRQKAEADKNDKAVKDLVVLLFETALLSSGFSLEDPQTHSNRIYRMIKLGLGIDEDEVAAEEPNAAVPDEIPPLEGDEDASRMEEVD

Results are given in words; binding and its absence hold for the method and conditions named. Some entries that bind do so weakly or less than the wild type.

This assay concerns the target Human PINK1 (residues 104–581, F104M) with a C-terminal His8 tag (human) (UniProt Q9BXM7). In words: cryo-EM structure.

Take “Human HSP90β (from UniProt P08238 3-724)”: the binding result was “binds”.
